{"source": "PubChem BioAssay AID504784 (Drosophila RNAi Screening Center, 2011)", "test": "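Search for regulators of lipid droplet storage in oleate-fed fly cells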 (primary screen)", "cell system": "Drosophila Kc167 embryonic cells", "reagents": "long dsRNA against Drosophila genes, about 250 ng dsRNA per well", "duration": "4 days", "challenge": "cells fed 400 µM oleic acid bound to BSA", "detection": "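Microscope images give a droplet-to-nucleus area ratio, taken as log and converted to a screen-wide B-score; higher values mean greater lipid storage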", "direction": "droplet/nuclear area B-score: higher = more stored lipid (overstorage)", "note": "In all, the deposit lists about 17,000 reagents; this is a random part of those with a known target gene and a result. 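Each column is one replicate's B-score; the combined score over replicates was not deposited, so single values may mislead.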 Further read-outs or replicates are left out here."}
The opening 2 entries, ahead of the listing:
{"gene":"CG14270","amplicon":"DRSC17913","droplet/nuclear area B-score, replicate 1":0.187}
{"gene":"gskt (gasket)","amplicon":"DRSC14056","droplet/nuclear area B-score, replicate 1":-2.3}

Results, from the start:
{"gene":"CG14270","amplicon":"DRSC17913","droplet/nuclear area B-score, replicate 1":0.187}
{"gene":"gskt (gasket)","amplicon":"DRSC14056","droplet/nuclear area B-score, replicate 1":-2.3}
{"gene":"Uggt (UDP-glucose-glycoprotein glucosyltransferase)","amplicon":"DRSC11315","droplet/nuclear area B-score, replicate 1":-0.246}
{"gene":"CycC (Cyclin C)","amplicon":"DRSC16619","droplet/nuclear area B-score, replicate 1":-0.162}
{"gene":"cta (concertina)","amplicon":"DRSC03769","droplet/nuclear area B-score, replicate 1":-0.201}
{"gene":"CG2076","amplicon":"DRSC19832","droplet/nuclear area B-score, replicate 1":1.67}
{"gene":"CG1354","amplicon":"DRSC17902","droplet/nuclear area B-score, replicate 1":-0.54}
{"gene":"eIF3j (eukaryotic translation initiation factor 3 subunit j)","amplicon":"DRSC06107","droplet/nuclear area B-score, replicate 1":1.9}
{"gene":"CG6337","amplicon":"DRSC06977","droplet/nuclear area B-score, replicate 1":-0.0252}
{"gene":"CG6337","amplicon":"DRSC21870","droplet/nuclear area B-score, replicate 1":3.96}
{"gene":"CG14273","amplicon":"DRSC02377","droplet/nuclear area B-score, replicate 1":-1.09}
{"gene":"Mpcp2","amplicon":"DRSC11226","droplet/nuclear area B-score, replicate 1":1.87}
{"gene":"Atg17 (Autophagy-related 17)","amplicon":"DRSC12221","droplet/nuclear area B-score, replicate 1":-0.268}
{"gene":"CG13724","amplicon":"DRSC10053","droplet/nuclear area B-score, replicate 1":-0.0516}
{"gene":"Debcl (Death executioner Bcl-2)","amplicon":"DRSC04965","droplet/nuclear area B-score, replicate 1":0.158}
{"gene":"Ipk1 (Inositol phosphate kinase 1)","amplicon":"DRSC04235","droplet/nuclear area B-score, replicate 1":0.467}
{"gene":"Ipk1 (Inositol phosphate kinase 1)","amplicon":"DRSC04236","droplet/nuclear area B-score, replicate 1":0.79}
{"gene":"Ipk1 (Inositol phosphate kinase 1)","amplicon":"DRSC04237","droplet/nuclear area B-score, replicate 1":-0.503}
